Data published in paper doi:10.1101/2020.02.10.941757.
Results are given in words; binding and its absence hold for the method and conditions named. In cells and extracts the contact can be indirect. Some results given as binding are weak or reduced against the parent protein; the word gives no strength. Where a sequence is shown, tags or fusion partners need not be part of it.

Sequences of proteins named here, by UniProt entry; tags and fusion partners are left off.
UniProt Q15436: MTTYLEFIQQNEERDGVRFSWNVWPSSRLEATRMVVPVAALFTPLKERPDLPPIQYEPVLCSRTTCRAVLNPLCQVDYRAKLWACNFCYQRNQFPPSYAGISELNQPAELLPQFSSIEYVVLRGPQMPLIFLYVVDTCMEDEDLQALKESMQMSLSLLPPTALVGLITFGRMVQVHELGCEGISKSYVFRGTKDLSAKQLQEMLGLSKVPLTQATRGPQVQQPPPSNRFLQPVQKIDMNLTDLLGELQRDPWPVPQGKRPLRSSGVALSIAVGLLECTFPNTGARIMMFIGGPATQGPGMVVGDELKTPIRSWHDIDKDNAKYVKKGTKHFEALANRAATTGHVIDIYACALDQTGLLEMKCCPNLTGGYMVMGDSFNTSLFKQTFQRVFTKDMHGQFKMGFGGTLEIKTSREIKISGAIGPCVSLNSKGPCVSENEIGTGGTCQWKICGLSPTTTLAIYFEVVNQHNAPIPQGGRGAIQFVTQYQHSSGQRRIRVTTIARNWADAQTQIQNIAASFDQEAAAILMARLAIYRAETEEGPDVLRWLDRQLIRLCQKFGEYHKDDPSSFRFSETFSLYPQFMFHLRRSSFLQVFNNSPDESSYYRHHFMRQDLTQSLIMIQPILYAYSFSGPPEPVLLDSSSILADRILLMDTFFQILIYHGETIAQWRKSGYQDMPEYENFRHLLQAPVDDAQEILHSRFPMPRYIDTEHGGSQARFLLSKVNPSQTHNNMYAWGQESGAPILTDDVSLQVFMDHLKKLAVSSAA

Target: T1, GFP-tagged wildtype DYRK3 (GFP-DYRK3 (WT)) (UniProt O43781)
T1 sequence: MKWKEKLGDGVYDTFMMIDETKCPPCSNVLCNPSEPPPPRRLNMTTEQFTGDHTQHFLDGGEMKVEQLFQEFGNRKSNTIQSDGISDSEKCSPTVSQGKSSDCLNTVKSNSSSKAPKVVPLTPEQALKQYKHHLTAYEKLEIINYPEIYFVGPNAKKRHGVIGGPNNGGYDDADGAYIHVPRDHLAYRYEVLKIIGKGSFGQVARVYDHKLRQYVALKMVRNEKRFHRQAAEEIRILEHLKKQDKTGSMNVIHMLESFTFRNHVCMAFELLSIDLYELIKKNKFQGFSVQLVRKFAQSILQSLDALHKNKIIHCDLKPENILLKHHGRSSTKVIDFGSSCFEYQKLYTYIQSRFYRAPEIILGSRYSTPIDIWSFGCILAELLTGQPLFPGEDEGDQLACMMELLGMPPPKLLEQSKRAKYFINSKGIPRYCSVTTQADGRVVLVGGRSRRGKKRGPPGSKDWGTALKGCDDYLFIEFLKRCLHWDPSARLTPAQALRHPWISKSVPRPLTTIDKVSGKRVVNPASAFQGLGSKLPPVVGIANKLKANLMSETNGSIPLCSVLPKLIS
Assay: co-IP

binding: binds
Substance: Sec23A (from UniProt Q15436 1-765)
